At least one structure is not confirmed: it was looked up by name or label, or the drawing left a doubt.
Experiments:
Type in all cases: cell-based
[1] = tested on: Klebsiella pneumonia culture; test: E-test
Acinetobacter Species [2] = test: Optical third-derivative MIC method, culture in broth; details: AC/2990; FIG. 5A; overall conclusion
From the text: (§1) The method of FIG. 1 starts at a time equal to zero, t0 (1). Preferably, said t0 is the moment a pure bacteria culture is finished being prepared. Alternatively, said t0 is the moment all wells contain both said bacteria culture and said antimicrobial drug. After the starting of the experiment each well is periodically illuminated with a light source and the intensity of the transmitted light is detected with a photodetector (2). Preferably, each well is illuminated and the intensity of the transmitted light is detected every hour (2). More preferably, each well is illuminated and the intensity of the transmitted light is detected every 5 to 15 min. After a predetermined time length, preferably after 4 hours, a first, a second and a third derivative of said measured intensity is calculated (3) in a first and a second time frame for each well. Preferably, said second time frame is the last measured time frame after the test has been running for said predetermined time length, and said first time frame is the time frame preceding the second time frame. More preferably, said first time frame is between two and three hours and said second time frame is between three and four hours. After the calculation of said derivatives, said first derivative in said second time frame of said reference well is compared to a growth speed threshold value (4). Preferably, said growth speed threshold value is 0.166 (4). If said first derivative in said second time frame of said reference well is larger than or equal to said growth speed threshold value said bacteria culture is classified as Type I (4). If said first derivative in said second time frame of said reference well is smaller than said growth speed threshold value said bacteria culture is classified as Type II (4). […] Both said first and said second time frames are evaluated to see if there is an inflection point present in the second derivative in said first and/or said second time frame (5).
(§2) If said first and/or said second time frame comprise said inflection point than said third derivative in said first time frame is compared to said third derivative in said second time frame (6). […] If said third derivative in said first time frame is not larger than said third derivative in said second time frame, then said well is illuminated again after a certain time period, preferably an hour, more preferably 5 to 15 min after said predetermined time length said, with a light source and the intensity of the transmitted light is detected with a photodetector forming a new time frame subsequent to said second time frame (7). A third derivative, and possibly also a first and/or a second derivative, is calculated in said new time frame (7). […]

[3] = tested on: Klebsiella pneumonia culture; test: as above
From the text: as §1, §2

Acinetobacter Species [4] = test: E-test; details: culture AC/2990

C[C@@H](O)[C@H]1C(=O)N2C(C(=O)O)=C(SCCN=CN)C[C@H]12 [imipenem]
HR? (E-test) ([1]; culture KP/38.3002): yes | HR? (E-test) ([1]; culture KP/153.4346): yes | HR? (E-test) ([1]; culture MP/072.3489): yes | heteroresistance determined by the method (Acinetobacter Species [2]): not heteroresistant | heteroresistance determined by the method ([3]; KP/38.3002, FIG. 5C, overall conclusion): heteroresistant | heteroresistance determined by the method ([3]; KP/38.3002, FIG. 5H, both repetitions): heteroresistant | heteroresistance determined by the method ([3]; MP/072.3489, FIG. 5B, overall conclusion): heteroresistant | HR? (E-test) (Acinetobacter Species [4]): no
